System: HepG2 cells
Assay: CellTiter-Glo cell viability assay
Format: cell-based, Human
Conditions: HepG2, 24 h treatment; mean ± SD of three experiments

CCCCc1oc2ccccc2c1C(=O)c1cc(I)c(OCCN(CC)CC)c(I)c1 [Amiodarone]
Cell Viability Efficacy (maximum inhibition of cell viability): 63.1±32.1%

From PMC4550094 (Journal of biomolecular screening, 2013)
